Laboratory results taken from the supplement of paper PMC11006884.
Only a part is listed here, and it is no random draw.

The chains behind the UniProt entries cited, without tags or fusion partners. Where a name states a change or a piece, a line headed by the entry shows the natural chain unless it says otherwise.
UniProt Q15003, whole entry, looked up: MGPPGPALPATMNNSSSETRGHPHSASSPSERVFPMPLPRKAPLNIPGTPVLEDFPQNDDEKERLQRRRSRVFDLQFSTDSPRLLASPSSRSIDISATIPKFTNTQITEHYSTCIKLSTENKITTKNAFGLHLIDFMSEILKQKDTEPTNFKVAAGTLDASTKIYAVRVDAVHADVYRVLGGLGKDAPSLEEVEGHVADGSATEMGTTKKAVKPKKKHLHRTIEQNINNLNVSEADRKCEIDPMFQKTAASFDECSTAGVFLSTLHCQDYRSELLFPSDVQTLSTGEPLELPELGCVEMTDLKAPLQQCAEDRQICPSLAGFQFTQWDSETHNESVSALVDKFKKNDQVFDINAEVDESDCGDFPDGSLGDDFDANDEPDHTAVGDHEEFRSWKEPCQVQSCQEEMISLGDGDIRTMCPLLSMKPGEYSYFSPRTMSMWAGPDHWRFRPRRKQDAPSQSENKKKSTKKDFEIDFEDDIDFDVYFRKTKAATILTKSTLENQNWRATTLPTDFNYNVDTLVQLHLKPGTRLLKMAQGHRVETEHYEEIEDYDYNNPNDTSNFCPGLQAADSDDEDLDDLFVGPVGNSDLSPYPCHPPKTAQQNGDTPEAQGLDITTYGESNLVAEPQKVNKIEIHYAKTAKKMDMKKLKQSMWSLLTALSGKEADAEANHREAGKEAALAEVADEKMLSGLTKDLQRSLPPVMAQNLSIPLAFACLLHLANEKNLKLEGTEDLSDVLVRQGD
UniProt Q13642: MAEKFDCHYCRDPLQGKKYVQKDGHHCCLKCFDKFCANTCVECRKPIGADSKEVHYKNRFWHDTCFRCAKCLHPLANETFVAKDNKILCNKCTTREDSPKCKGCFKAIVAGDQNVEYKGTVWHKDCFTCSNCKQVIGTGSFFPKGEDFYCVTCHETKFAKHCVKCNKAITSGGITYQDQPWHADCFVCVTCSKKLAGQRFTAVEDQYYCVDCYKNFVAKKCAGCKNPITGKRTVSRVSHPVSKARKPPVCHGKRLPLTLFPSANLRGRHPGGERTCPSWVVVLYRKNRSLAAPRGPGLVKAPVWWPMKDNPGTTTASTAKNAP
UniProt Q14204, whole entry, looked up: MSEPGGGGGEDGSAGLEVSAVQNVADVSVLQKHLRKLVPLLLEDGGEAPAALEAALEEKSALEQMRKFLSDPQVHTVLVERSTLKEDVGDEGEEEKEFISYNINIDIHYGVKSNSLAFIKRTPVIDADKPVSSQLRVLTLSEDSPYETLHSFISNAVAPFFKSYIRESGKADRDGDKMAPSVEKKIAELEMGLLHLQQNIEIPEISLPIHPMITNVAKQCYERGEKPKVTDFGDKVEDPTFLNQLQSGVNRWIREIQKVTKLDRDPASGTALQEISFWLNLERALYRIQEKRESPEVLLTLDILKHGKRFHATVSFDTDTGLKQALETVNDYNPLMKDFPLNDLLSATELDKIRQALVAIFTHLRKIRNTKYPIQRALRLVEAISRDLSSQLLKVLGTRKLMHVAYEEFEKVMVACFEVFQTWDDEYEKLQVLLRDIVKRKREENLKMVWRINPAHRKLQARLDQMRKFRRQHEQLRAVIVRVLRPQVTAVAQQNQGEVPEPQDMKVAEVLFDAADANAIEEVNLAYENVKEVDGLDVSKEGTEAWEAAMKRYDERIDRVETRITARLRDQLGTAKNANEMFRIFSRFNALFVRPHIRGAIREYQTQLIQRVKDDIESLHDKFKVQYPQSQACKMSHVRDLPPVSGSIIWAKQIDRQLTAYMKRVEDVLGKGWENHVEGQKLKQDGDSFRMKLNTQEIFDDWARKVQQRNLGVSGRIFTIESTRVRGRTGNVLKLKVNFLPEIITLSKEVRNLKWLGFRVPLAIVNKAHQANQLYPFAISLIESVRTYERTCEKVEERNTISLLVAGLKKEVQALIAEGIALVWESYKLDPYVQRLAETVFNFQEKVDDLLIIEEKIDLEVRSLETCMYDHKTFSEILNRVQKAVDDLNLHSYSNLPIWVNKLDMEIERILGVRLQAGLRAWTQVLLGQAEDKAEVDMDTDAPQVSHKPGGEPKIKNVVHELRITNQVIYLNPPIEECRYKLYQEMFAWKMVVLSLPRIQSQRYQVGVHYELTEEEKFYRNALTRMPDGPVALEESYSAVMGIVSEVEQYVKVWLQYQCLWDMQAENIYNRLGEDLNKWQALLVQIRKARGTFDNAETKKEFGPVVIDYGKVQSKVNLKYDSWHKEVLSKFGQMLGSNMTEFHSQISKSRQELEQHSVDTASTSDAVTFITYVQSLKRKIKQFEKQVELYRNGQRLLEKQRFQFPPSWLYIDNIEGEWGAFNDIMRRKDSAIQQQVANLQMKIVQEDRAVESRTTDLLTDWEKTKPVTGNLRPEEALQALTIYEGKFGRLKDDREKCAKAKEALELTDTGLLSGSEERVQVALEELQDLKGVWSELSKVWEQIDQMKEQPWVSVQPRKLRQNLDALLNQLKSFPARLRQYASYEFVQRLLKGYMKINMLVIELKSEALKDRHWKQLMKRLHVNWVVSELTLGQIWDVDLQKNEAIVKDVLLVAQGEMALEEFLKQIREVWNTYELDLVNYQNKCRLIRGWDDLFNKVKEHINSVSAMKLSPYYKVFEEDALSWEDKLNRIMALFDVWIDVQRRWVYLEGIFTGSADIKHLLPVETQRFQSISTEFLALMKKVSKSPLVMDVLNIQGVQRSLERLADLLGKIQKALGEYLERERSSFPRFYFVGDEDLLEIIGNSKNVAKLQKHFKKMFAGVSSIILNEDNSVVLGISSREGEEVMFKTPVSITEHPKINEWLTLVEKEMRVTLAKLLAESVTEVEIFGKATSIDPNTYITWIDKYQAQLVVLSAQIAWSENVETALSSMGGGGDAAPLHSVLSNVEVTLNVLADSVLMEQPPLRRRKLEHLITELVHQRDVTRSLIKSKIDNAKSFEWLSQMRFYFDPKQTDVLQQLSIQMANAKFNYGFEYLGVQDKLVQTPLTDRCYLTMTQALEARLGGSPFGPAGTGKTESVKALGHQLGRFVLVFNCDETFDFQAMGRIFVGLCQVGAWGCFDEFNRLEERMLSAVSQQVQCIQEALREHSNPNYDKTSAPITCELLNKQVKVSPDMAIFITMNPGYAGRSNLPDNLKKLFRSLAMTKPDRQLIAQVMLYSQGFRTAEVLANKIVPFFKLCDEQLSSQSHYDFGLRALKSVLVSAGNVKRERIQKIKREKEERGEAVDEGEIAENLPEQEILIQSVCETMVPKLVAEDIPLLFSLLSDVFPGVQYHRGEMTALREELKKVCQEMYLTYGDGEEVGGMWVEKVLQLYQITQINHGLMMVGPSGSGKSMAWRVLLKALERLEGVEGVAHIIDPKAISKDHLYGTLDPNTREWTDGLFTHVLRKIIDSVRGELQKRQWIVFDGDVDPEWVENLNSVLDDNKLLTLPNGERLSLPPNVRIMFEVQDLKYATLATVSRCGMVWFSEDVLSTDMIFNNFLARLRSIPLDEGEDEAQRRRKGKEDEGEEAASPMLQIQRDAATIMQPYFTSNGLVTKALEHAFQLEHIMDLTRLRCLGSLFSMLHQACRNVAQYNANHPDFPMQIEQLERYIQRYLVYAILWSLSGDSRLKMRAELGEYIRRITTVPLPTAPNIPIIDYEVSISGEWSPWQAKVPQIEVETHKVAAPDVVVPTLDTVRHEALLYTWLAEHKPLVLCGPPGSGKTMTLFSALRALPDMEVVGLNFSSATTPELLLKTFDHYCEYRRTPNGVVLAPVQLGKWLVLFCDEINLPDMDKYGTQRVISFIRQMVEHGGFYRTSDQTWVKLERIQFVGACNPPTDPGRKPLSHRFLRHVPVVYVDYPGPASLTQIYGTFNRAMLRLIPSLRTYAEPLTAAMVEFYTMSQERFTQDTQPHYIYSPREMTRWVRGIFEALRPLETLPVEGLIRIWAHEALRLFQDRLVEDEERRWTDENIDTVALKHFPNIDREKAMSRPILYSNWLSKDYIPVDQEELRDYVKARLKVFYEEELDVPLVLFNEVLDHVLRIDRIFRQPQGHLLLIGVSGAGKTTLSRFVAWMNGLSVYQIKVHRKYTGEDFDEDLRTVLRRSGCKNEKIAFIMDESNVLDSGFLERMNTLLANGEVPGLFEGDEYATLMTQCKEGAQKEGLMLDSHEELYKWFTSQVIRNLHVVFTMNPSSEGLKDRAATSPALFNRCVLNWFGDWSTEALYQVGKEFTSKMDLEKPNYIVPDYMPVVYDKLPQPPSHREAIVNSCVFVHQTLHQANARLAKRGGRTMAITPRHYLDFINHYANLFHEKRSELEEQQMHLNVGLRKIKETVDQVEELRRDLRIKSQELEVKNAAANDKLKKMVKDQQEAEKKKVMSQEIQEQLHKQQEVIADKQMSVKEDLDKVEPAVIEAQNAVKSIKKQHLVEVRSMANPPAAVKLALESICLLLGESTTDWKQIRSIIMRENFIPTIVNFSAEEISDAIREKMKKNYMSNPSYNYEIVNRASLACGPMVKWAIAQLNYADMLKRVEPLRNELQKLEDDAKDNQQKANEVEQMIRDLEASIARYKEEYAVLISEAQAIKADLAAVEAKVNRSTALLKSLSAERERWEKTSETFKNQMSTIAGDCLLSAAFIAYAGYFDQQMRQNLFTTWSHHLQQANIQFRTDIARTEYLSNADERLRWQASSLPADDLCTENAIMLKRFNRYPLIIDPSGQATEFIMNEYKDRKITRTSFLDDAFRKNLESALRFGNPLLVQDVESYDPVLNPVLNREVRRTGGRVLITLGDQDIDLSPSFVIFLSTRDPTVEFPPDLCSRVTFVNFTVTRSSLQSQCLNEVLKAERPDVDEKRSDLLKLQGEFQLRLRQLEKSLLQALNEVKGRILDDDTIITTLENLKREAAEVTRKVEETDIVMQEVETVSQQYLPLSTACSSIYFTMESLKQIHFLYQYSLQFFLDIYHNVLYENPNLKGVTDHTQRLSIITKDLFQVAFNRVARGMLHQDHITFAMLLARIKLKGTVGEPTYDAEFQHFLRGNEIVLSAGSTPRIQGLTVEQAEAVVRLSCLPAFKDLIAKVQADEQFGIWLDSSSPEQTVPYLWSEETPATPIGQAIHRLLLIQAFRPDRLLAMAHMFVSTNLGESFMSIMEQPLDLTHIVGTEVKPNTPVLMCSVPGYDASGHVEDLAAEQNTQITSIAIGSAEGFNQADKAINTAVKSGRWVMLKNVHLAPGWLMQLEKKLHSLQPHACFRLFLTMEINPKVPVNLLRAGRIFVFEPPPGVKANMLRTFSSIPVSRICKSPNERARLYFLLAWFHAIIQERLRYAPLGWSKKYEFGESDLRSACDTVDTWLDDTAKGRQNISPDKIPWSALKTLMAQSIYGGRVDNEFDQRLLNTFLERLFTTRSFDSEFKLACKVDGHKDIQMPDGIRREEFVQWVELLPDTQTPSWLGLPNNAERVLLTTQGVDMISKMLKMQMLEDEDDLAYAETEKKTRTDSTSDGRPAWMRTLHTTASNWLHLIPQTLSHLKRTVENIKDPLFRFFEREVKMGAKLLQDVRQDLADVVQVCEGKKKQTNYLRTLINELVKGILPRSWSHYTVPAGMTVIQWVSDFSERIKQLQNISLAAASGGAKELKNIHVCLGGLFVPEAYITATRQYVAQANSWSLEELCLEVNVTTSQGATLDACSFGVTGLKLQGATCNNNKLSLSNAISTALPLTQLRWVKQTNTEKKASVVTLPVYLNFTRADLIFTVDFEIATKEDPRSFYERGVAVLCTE
UniProt Q13885, whole entry, looked up: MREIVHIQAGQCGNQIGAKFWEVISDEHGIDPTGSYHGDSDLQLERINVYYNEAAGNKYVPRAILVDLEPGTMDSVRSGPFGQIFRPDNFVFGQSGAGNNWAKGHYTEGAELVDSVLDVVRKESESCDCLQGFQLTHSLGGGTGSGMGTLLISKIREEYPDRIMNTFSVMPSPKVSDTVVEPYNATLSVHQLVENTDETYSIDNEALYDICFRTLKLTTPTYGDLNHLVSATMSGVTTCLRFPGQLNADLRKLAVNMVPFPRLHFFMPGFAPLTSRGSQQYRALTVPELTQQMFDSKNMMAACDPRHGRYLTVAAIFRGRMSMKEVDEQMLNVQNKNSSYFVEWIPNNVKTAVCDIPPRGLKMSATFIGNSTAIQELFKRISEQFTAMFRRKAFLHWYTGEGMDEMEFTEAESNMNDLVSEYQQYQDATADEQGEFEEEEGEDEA
UniProt Q13561, whole entry, looked up: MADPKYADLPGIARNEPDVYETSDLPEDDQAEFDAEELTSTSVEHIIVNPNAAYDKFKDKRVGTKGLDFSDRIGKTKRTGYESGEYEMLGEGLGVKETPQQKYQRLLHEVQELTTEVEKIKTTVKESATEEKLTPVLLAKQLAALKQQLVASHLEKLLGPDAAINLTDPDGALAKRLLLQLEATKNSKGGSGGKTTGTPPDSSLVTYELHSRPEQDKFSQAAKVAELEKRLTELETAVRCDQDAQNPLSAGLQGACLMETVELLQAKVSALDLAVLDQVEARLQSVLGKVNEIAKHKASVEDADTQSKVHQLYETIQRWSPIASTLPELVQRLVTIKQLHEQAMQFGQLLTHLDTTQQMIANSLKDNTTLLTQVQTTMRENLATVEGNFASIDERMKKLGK

The targets below were run with COC(=O)C#Cc1ccccc1 [methyl 3-phenylpropiolate] (assay: log2 ratio of iodoacetamide-alkyne labeling of the cysteine site, DMSO over compound (competition); higher = stronger covalent engagement of the cysteine by the compound, active = 1 or more). Details: 500 µM; treatment time 1 h; system: HEK293T cell lysate.
Summary of the method: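 Reporter intensities give each cysteine's log2 competition ratio as the mean of control channels over the mean of compound channels. The samples were HEK293T lysate (2 mg/mL) given vehicle or electrophile (500 µM, 1 h, ambient temperature), then iodoacetamide alkyne (1 h), followed by click coupling to sCIP-TMT reagents, pooling, trypsin digestion overnight at 37 °C, streptavidin enrichment, acid elution, Orbitrap Eclipse LC-MS/MS with FAIMS and FragPipe quantification. Duplicate channels and three replicates were run, and cysteines quantified in only one replicate were discarded.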

Target | log2 ratio of iodoacetamide-alkyne labeling
NUMA1 C961 (UniProt Q14980) | active: 1.55
PDCD11 C361 (UniProt Q14690) | inactive: 0.384
CTTN C246 (UniProt Q14247) | inactive: 0.834
RASA3 C58 (UniProt Q14644) | inactive: 0.224
HLTF C442 (UniProt Q14527) | inactive: 0.431
NCAPH C714 (UniProt Q15003) | inactive: 0.0945
FHL1 C212 (UniProt Q13642) | inactive: 0.0707
DYNC1H1 C4510 (UniProt Q14204) | inactive: 0.182
FHL1 C150 (UniProt Q13642) | inactive: -0.0675
CHD4 C1121 (UniProt Q14839) | inactive: 0.176
GAPVD1 C374 (UniProt Q14C86) | inactive: 0.197
MCM6 C302 (UniProt Q14566) | inactive: 0.0739
FHL1 C36 (UniProt Q13642) | inactive: 0.286
SQSTM1 C290 (UniProt Q13501) | inactive: 0.896
CUL2 C721 (UniProt Q13617) | inactive: 0.301
EIF3A C78 (UniProt Q14152) | inactive: 0.382
UniProt Q13885_C239 | inactive: 0.464
CKAP5 C1946 (UniProt Q14008) | inactive: 0.76
SPTAN1 C956 (UniProt Q13813) | inactive: 0.244

Some of the entries above in another layout:

| Target | log2 ratio of iodoacetamide-alkyne labeling |
| --- | --- |
| HLTF C442 (UniProt Q14527) | inactive: 0.431 |
| NCAPH C714 (UniProt Q15003) | inactive: 0.0945 |
| FHL1 C212 (UniProt Q13642) | inactive: 0.0707 |
| DYNC1H1 C4510 (UniProt Q14204) | inactive: 0.182 |
| FHL1 C150 (UniProt Q13642) | inactive: -0.0675 |
| CHD4 C1121 (UniProt Q14839) | inactive: 0.176 |
| GAPVD1 C374 (UniProt Q14C86) | inactive: 0.197 |

Continued:

Target | log2 ratio of iodoacetamide-alkyne labeling
DCTN2 C256 (UniProt Q13561) | inactive: 0.566
UBE4A C1002 (UniProt Q14139) | inactive: 0.466
SQSTM1 C128 (UniProt Q13501) | inactive: 0.051
DYNC1H1 C3573 (UniProt Q14204) | inactive: 0.325
DYNC1H1 C2712 (UniProt Q14204) | inactive: 0.254
UniProt Q14241_C339 | inactive: 0.0503
SLBP C15 (UniProt Q14493) | inactive: 0.507
POLA2 C590 (UniProt Q14181) | inactive: 0.158
RRP1B C628 (UniProt Q14684) | inactive: 0.838
FHL1 C10 (UniProt Q13642) | inactive: -0.136
MORC3 C632 (UniProt Q14149) | inactive: 0.732
GAMT C91 (UniProt Q14353) | inactive: 0.223
NCAPH C316 (UniProt Q15003) | inactive: -0.0371
NCAPD2 C439 (UniProt Q15021) | inactive: 0.313
EIF3A C58 (UniProt Q14152) | inactive: 0.0702
SART3 C472 (UniProt Q15020) | inactive: 0.326
KPNB1 C817 (UniProt Q14974) | inactive: 0.76
EIF4EBP2 C73 (UniProt Q13542) | inactive: 0.291
